Measurements taken from patent US20050148035A1.
These are yes or no findings as the source states them, for the method shown. Some results given as binding are weak or reduced against the parent protein; the word gives no strength.

By UniProt entry, the sequences of proteins in these tests, tags left out. Where a name states a change or a piece, a line headed by the entry shows the natural chain unless it says otherwise.
UniProt P17936: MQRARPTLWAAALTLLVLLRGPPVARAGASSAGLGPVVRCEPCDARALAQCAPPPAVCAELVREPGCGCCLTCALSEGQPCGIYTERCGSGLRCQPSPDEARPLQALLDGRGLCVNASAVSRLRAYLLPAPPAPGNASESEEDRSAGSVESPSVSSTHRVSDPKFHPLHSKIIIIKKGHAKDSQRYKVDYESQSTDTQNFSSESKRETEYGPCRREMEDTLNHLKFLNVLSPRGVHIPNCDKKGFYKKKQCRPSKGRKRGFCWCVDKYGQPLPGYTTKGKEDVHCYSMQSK

What was measured:
[1] = target: native-sequence human IGFBP-3 (human) (UniProt P17936); assay: BIAcore competition
[2] = target: native-sequence human IGFBP-3 (human) (UniProt P17936); assay: BIAcore competition, bp15 preincubated with IGFBP-3, injected over immobilised biotinylated IGF-I and IGF-II

binding [1]: binds
binding [2]: binds
Binder: SEEVCWPVAEWYLCN [peptide bp15]
